Experimental data reported in PMC5466600.
Results are given in words; binding and its absence hold for the method and conditions named. In cells and extracts the contact can be indirect. Some results given as binding are weak or reduced against the parent protein; the word gives no strength.

Target: T1, Epe1-8xHA (fission yeast) (UniProt O94603)
T1 sequence: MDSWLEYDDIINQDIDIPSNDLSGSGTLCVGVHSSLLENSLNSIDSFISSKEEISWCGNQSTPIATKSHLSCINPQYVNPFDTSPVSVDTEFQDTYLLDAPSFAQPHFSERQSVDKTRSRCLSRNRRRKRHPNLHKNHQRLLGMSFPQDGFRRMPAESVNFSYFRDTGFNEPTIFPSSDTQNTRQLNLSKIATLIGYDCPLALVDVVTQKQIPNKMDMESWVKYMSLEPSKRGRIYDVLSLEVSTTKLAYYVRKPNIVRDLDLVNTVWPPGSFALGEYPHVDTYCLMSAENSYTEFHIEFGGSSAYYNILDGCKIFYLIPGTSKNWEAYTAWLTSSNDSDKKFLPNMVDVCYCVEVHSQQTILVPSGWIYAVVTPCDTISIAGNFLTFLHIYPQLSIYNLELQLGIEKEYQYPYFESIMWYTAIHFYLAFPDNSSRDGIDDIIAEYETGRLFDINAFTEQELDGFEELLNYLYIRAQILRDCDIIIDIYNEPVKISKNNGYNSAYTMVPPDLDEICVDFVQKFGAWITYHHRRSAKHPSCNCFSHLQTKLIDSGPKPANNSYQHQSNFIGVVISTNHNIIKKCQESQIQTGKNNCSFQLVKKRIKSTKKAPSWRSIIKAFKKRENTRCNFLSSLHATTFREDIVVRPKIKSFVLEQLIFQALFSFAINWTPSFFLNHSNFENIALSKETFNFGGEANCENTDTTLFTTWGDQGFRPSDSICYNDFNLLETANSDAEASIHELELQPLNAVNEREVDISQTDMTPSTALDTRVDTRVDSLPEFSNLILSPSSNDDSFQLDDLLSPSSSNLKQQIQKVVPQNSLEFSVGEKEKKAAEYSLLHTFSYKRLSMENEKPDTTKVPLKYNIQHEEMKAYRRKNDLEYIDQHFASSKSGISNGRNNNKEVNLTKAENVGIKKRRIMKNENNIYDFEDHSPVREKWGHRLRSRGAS
Experiment: co-IP; lysate of fission yeast cells grown 10 h in YES; anti-HA antibody then protein A/G PLUS-agarose beads for 6 h; washed with lysis buffer; Western blot of phosphorylated Ssp2

binding: binds
B1: phosphorylated Ssp2 (AMPK alpha subunit) (protein, UniProt O74536 1-576)
chain: MQPQEVDLMENSTMRNGARVLPPEAISKRHIGPYIIRETLGEGSFGKVKLATHYKTQQKVALKFISRQLLKKSDMHMRVEREISYLKLLRHPHIIKLYDVITTPTDIVMVIEYAGGELFDYIVEKKRMTEDEGRRFFQQIICAIEYCHRHKIVHRDLKPENLLLDDNLNVKIADFGLSNIMTDGNFLKTSCGSPNYAAPEVINGKLYAGPEVDVWSCGIVLYVMLVGRLPFDDEFIPNLFKKVNSCVYVMPDFLSPGAQSLIRRMIVADPMQRITIQEIRRDPWFNVNLPDYLRPMEEVQGSYADSRIVSKLGEAMGFSEDYIVEALRSDENNEVKEAYNLLHENQVIQEKSHLSKSKRVDSFLSVSPPAFSEYTSELQKKSKQELIDPTLEGPRWTVSDPPTYAKQTIDSNICVLVPTAEKNKLEMRTLADAASAVDTSQSTRKKSRRNKWHFGVRCRGDAPEILLAVYRALQRAGAQFTVPKPVNGKYRSDMYTIKSRWEIPHCKREGKNTYAYIELQLYEVMPGCFMLDVKSNGYKDIYSHPERTADHGMDDLKSSFPFLDLCAMLVCKLFSA
modifications: phosphothreonine at 189
